# Earlier results as cited in US7592340B2, “Quinoxalines useful as inhibitors of protein kinases” (Vertex Pharmaceuticals Incorporated, priority 2003, dated 2009).
# At least one structure is not confirmed: it was looked up by name or label, or the drawing left a doubt.
# Test system: amyloid-β peptides
# Settings: mice over-expressing amyloid precursor protein (APP), treated over a three-week period
compound,measurement,value
[Li] [lithium],decrease in amyloid-β peptide tissue levels,> 50%
